Publication PMC11032447
No constants are given. Whether binding was seen depends on the method and setting. Some results given as binding are weak or reduced against the parent protein; the word gives no strength. Sequences can lack the tags named with a protein.

Biological target: His6-tagged GFP-fusion construct carrying the mouse SNAP-25 14-33 peptide as C-terminal tag (mouse)
Experiment: crystal structure; human secretagogin/GFP-SNAP-25 peptide complex; vapor diffusion at 4 °C; 25 mM Tris-HCl pH 8.0, 150 mM NaCl, 2 mM CaCl2; 2.30 Å; P212121, two copies in the asymmetric unit; both purified

B1: human secretagogin, co-expressed and co-purified with the GFP-SNAP-25 peptide fusion (protein, UniProt O76038 1-276)
chain: MDSSREPTLGRLDAAGFWQVWQRFDADEKGYIEEKELDAFFLHMLMKLGTDDTVMKANLHKVKQQFMTTQDASKDGRIRMKELAGMFLSEDENFLLLFRRENPLDSSVEFMQIWRKYDADSSGFISAAELRNFLRDLFLHHKKAISEAKLEEYTGTMMKIFDRNKDGRLDLNDLARILALQENFLLQFKMDACSTEERKRDFEKIFAYYDVSKTGALEGPEVDGFVKDMMELVQPSISGVDLDKFREILLRHCDVNKDGKIQKSELALCLGLKINP
B1 was tested, and the binding was “binds”.
